Measurements from paper PMC11157491, “Novel Alaninamide Derivatives with Drug-like Potential for Development as Antiseizure and Antinociceptive Therapies—In Vitro and In Vivo Characterization” (ACS Chemical Neuroscience, 2024).

Legend:
mice [1] = experiment: Maximal electroshock (MES) seizure test; type: in vivo; settings: TD50 chimney test / ED50 MES
Description: (§1) Identification and profiling of new ASM candidate compounds are still largely based on predictive animal models of seizures/epilepsy, while a range of in silico and in vitro approaches (i.e., molecular modeling or high throughput screening, etc.) are increasingly used in the early stages of ASM discovery.[31] The Epilepsy Therapy Screening Program (ETSP) of the National Institute of Neurological Disorders and Stroke (NIH, Bethesda, MD) has enabled the discovery of several approved ASMs by focusing on the in vivo testing of compounds synthesized by both academic laboratories and industry.[32] The ETSP provides a broad panel of seizure tests (ca. 30 rodent models), but a subset of them is used for the initial screening of new compounds with potential antiseizure activity. The routinely used seizure models include: (i) the MES test, which is an experimental model of tonic–clonic seizures, (ii) the 6 Hz model (32 mA) of focal seizures, and (iii) the scPTZ model of generalized absence or myoclonic seizures.[33],[34] Consequently, in the current studies, all final compounds 21–36 and 45–48 were initially studied in the MES and the 6 Hz (32 mA) seizure models after intraperitoneal (i.p.) administration at a screening dose of 100 mg/kg in mice at a time point of 0.5 h (the screening group consisted of four mice, and the results obtained are summarized in Table S1).
(§2) These parameters were then used to calculate the protective indexes (PIs, PI = TD50/ED50), which describe the therapeutics window of potential drug candidates. The ED50, TD50, and PI values for the tested compounds together with data of their chemical prototypes KA-11 and KJ-5 and reference ASMs are summarized in Table 2.
(§3) The adult male Albino Swiss mice weighed between 22 and 26 g were used in the in vivo studies. They were housed under standardized housing conditions in colony cages and had free access to food as well as tap water. The animals were left to adapt under laboratory conditions for 7 days. All procedures involving animals and their care were performed in accordance with the current European Community and Polish legislation on animal experimentation.
(§4) In the initial screening studies, four mice per group were randomly assigned to each experimental group (each mouse was used only once). To evaluate the ED50 or TD50 values, four groups consisting of eight animals were injected with various doses of tested compounds. The protective indexes (PIs) for the compounds investigated and reference ASMs were calculated by dividing the TD50 value, as determined in the chimney test, by the respective ED50 value, as determined in the MES, scPTZ, or 6 Hz (32 or 44 mA) tests (PI = TD50/ED50). The PIs are a measure of the potential therapeutic window of the tested agent.
(§5) All substances were suspended in Tween 80 (1% aqueous solution) and administered i.p. as a single injection at a dose of 10 mL/kg. On each day of experimentation, fresh solutions were prepared. The detailed in vivo procedures are described elsewhere: the maximal electroshock seizure test (MES),[60] the subcutaneous pentylenetetrazole seizure test (scPTZ),[61] the 6 Hz psychomotor seizure model (32 and 44 mA),[62] and the chimney test.[63] The reference ASMs were purchased from commercial suppliers: VPA (Sigma-Aldrich, St. Louis, MO), LCS, and LEV (UCB Pharma, Braine l’Alleud, Belgium).

mice [2] = experiment: 6 Hz (32 mA) psychomotor seizure model; type: in vivo; settings: TD50 chimney test / ED50 6 Hz (32 mA)
Description: as §1, §2, §3, §4, §5

mice [3] = experiment: 6 Hz (44 mA) model of pharmacoresistant seizures; type: in vivo; settings: for PI (TD50/ED50) 6 Hz (44 mA): TD50 chimney test / ED50 6 Hz (44 mA)
Description: Based on the promising pharmacological data for 26 and 28, and especially potent protection in the 6 Hz (32 mA) seizure model, both compounds were tested subsequently in the 6 Hz seizure model, applying a higher current intensity of 44 mA (Table 3). Importantly, this test is recognized as one of the key animal models of pharmacoresistant seizures, utilized in the early stage of new ASMs’ development.
as §4, §5

mice [4] = settings: cited from earlier work
mice [5] = settings: cited from earlier work; remark: listed apart in the source
mice [6] = settings: cited from earlier work; remark: listed apart in the source

With `CC(=O)NC(C)C(=O)N1CCN(c2cccc(Cl)c2)CC1` (stereo not drawn) [Compound 22, N-(1-(4-(3-Chlorophenyl)piperazin-1-yl)-1-oxopropan-2-yl)acetamide] the “PI (TD50/ED50) MES” value (mice [1]) was 1.7 and the “PI (TD50/ED50) 6 Hz (32 mA)” value (mice [2]) was 2.8.
With `CC(=O)NC(C)C(=O)N1CCN(c2ccc(Cl)c(Cl)c2)CC1` (stereo not drawn) [Compound 24, N-(1-(4-(3,4-Dichlorophenyl)piperazin-1-yl)-1-oxopropan-2-yl)acetamide] the “PI (TD50/ED50) 6 Hz (32 mA)” value (mice [2]) was 3.4 (6 Hz).
With `CC(=O)NC(C)C(=O)N1CCN(c2cc(Cl)cc(Cl)c2)CC1` (stereo not drawn) [Compound 25, N-(1-(4-(3,5-Dichlorophenyl)piperazin-1-yl)-1-oxopropan-2-yl)acetamide] the “PI (TD50/ED50) MES” value (mice [1]) was 3.8 and the “PI (TD50/ED50) 6 Hz (32 mA)” value (mice [2]) was 3.6.
In the case of `CC(=O)NC(C)C(=O)N1CCN(c2cccc(C(F)(F)F)c2)CC1` (stereo not drawn) [Compound 26, N-(1-oxo-1-(4-(3-(Trifluoromethyl)phenyl)piperazin-1-yl)propan-2-yl)acetamide], the “PI (TD50/ED50) MES” value (mice [1]) is reported as 2.7, the “PI (TD50/ED50) 6 Hz (32 mA)” value (mice [2]) is reported as 11.0 and the “PI (TD50/ED50) 6 Hz (44 mA)” value (mice [3]) is reported as 5.8. The “effectiveness relative to KJ-5 in the 6 Hz (44 mA) test” value (mice [3]; more effective than KJ-5) was greater than 2 fold.
With `CC(=O)NC(C)C(=O)N1CCN(c2cccc(OC(F)(F)F)c2)CC1` (stereo not drawn) [Compound 28, N-(1-oxo-1-(4-(3-(Trifluoromethoxy)phenyl)piperazin-1-yl)propan-2-yl)acetamide] the “PI (TD50/ED50) MES” value (mice [1]) was 2.8, the “PI (TD50/ED50) 6 Hz (32 mA)” value (mice [2]) was 8.2 and the “PI (TD50/ED50) 6 Hz (44 mA)” value (mice [3]) was 3.4.
In the case of `CC(=O)NC(C)C(=O)N1CCN(c2cccc(Oc3ccccc3)c2)CC1` (stereo not drawn) [Compound 29, N-(1-oxo-1-(4-(3-Phenoxyphenyl)piperazin-1-yl)propan-2-yl)acetamide], the “PI (TD50/ED50) MES” value (mice [1]) is reported as 2.7 and the “PI (TD50/ED50) 6 Hz (32 mA)” value (mice [2]) is reported as 2.6.
For `CC(=O)NC(C)C(=O)N1CCN(c2cccc(SC(F)(F)F)c2)CC1` (stereo not drawn) [Compound 30, N-(1-oxo-1-(4-(3-((Trifluoromethyl)thio)phenyl)piperazin-1-yl)propan-2-yl)acetamide], the “PI (TD50/ED50) MES” value (mice [1]) was 3.0 and the “PI (TD50/ED50) 6 Hz (32 mA)” value (mice [2]) was 3.4.
For `CC(C(=O)N1CCN(c2cccc(C(F)(F)F)c2)CC1)N1C(=O)CCC1=O` (stereo not drawn) [KA-11], the “PI (TD50/ED50) MES” value (mice [4]; TD50 chimney test) is listed as greater than 17.0 and the “PI (TD50/ED50) 6 Hz (32 mA)” value (mice [5]; TD50 chimney test) is listed as greater than 71.4.
For `CC(=O)NC(C(=O)N1CCN(c2cccc(C(F)(F)F)c2)CC1)c1ccccc1` (stereo not drawn) [KJ-5], the “PI (TD50/ED50) MES” value (mice [4]; TD50 chimney test) is given as 2.0, the “PI (TD50/ED50) 6 Hz (32 mA)” value (mice [5]; TD50 chimney test) is given as 6.0 and the “PI (TD50/ED50) 6 Hz (44 mA)” value (mice [6]; TD50 chimney test) is given as 2.6.
In the case of `COC[C@@H](NC(C)=O)C(=O)NCc1ccccc1` [LCS, lacosamide], the “PI (TD50/ED50) MES” value (mice [4]; TD50 rotarod test) is listed as 5.0, the “PI (TD50/ED50) 6 Hz (32 mA)” value (mice [5]; TD50 rotarod test) is listed as 8.8 and the “PI (TD50/ED50) 6 Hz (44 mA)” value (mice [6]; TD50 rotarod test) is listed as 6.7.
In the case of `CCCC(CCC)C(=O)O` [VPA, valproic acid, reference compound], the “PI (TD50/ED50) MES” value (mice [4]; TD50 rotarod test) is given as 1.7, the “PI (TD50/ED50) 6 Hz (32 mA)” value (mice [5]; TD50 rotarod test) is given as 3.3 and the “PI (TD50/ED50) 6 Hz (44 mA)” value (mice [6]; TD50 rotarod test) is given as 2.3.

Like-named read-outs stand apart in the source and are kept apart here.
